Results from paper PMC3836738.
Results are given in words; binding and its absence hold for the method and conditions named. In cells and extracts the contact can be indirect. Some entries that bind do so weakly or less than the wild type.

Amino acid sequences for entries named in this document (tags omitted).
UniProt Q86YI8: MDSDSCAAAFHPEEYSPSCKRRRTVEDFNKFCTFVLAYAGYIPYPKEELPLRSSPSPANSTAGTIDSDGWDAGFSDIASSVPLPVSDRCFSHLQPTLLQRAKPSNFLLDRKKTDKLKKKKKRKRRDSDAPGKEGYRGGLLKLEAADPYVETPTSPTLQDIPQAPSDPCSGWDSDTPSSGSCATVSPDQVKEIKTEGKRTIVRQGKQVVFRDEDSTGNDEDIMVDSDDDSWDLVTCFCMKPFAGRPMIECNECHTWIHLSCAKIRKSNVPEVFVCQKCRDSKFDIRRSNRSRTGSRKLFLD

Assays:
[1] = biological target: SPOC1 (survival-time associated PHD protein in ovarian cancer 1/PHF13), endogenous (human (endogenous in H1299)) (UniProt Q86YI8); assay: co-IP; H1299 cells infected with H5pg4100, H5pm4149 or H5pm4154 at 50 FFU per cell; total cell extracts 24 and 48 h post infection; precipitated with rabbit polyclonal SPOC1 antibody, blot with 2A6 (E1B-55K) and B6-8 (E2A/DBP)
[2] = biological target: SPOC1, exogenous, doxycyclin-induced in stably transfected DLD1 and U2OS cells (human) (UniProt Q86YI8); assay: co-IP; DLD1 and U2OS cells with doxycyclin-induced SPOC1, infected with H5pg4100, H5pm4149 or H5pm4154 at 50 FFU per cell; total cell extracts 24 h post infection; precipitated with rabbit polyclonal SPOC1 antibody, blot with 2A6 (E1B-55K) and B6-8 (E2A/DBP)

Ad5 E2A-DBP expressed in virus-infected cells (from UniProt P03265 1-529)
binding [1]: binds
binding [2]: binds
